Substitutions are numbered along the chain they refer to. These are yes or no findings as the source states them, for the method shown. In cells and extracts the contact can be indirect. Some binding calls cover weakened binding; strength is not graded here. For some of these results: Tags and fused reporters may be left off the sequences shown. One block for each binder: values may come before it.
What was measured:
[1] = molecular target: T1, PAR-5, the C. elegans 14-3-3 protein orthologue (C. elegans) (UniProt P41932); test: co-IP; lysates of control daf-2 and daf-2; aak(0) dauer larvae (lysis buffer 50mM Hepes pH7.5, 150mM NaCl, 10% glycerol, 1% Triton X-100, 1.5mM MgCl2, 1mM EDTA); immunoprecipitation with anti-PAR-5 or anti-ATGL-1 antibody and Protein-A agarose, immunoblot with anti-ATGL-1 or anti-PAR-5; reciprocal
T1 sequence: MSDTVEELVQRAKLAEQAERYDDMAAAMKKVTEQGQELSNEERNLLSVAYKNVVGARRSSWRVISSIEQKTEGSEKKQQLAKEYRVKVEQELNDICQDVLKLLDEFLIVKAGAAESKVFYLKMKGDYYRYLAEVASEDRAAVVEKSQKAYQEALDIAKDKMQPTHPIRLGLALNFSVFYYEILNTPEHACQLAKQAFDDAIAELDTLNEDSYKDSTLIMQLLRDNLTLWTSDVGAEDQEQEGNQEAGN

[2] = molecular target: T2, ATGL-1::GFP (wild type ATGL-1 tagged with GFP, transgene) (C. elegans) (UniProt Q11186); test: co-IP; lysates of daf-2 dauer larvae carrying ATGL-1::GFP or ATGL-1(S303A)::GFP; immunoprecipitation with a GFP antibody, immunoblot with anti-PAR-5 antibody
T2 sequence: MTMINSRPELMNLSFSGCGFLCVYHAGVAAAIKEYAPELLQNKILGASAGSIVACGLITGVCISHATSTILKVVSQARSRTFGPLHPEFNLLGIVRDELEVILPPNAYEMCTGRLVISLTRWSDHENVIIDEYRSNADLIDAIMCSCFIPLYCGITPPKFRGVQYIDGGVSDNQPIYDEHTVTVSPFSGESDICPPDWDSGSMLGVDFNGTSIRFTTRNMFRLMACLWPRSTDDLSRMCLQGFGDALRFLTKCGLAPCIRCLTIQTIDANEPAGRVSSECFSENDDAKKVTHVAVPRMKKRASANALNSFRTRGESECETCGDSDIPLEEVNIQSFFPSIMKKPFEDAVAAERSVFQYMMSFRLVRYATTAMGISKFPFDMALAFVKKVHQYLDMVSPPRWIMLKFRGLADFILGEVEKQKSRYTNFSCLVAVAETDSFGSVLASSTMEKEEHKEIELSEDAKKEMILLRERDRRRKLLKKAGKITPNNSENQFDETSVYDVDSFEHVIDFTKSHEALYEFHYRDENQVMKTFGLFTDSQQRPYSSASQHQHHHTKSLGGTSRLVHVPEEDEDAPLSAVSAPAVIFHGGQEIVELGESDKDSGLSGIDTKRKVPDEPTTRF

[3] = molecular target: T3, ATGL-1(S303A)::GFP (non-phosphorylatable ATGL-1 variant tagged with GFP, transgene) (C. elegans) (UniProt Q11186); test: as above
T3 sequence: T2 sequence with S303A

[4] = molecular target: T4, adipose triglyceride lipase (ATGL-1), endogenous C. elegans protein (C. elegans) (UniProt Q11186); test: co-IP; lysates of control daf-2 and daf-2; aak(0) dauer larvae (lysis buffer 50mM Hepes pH7.5, 150mM NaCl, 10% glycerol, 1% Triton X-100, 1.5mM MgCl2, 1mM EDTA); immunoprecipitation with anti-PAR-5 or anti-ATGL-1 antibody and Protein-A agarose, immunoblot with anti-ATGL-1 or anti-PAR-5; reciprocal
T4 sequence: T2 sequence

binding [1]: binds
B1: adipose triglyceride lipase (ATGL-1), endogenous C. elegans protein (enzyme, UniProt Q11186 1-621)
chain: T2 sequence

binding [2]: binds
binding [3]: binds
binding [4]: binds
B2: PAR-5, the C. elegans 14-3-3 protein orthologue (protein, UniProt P41932 1-248)
chain: T1 sequence
